Measurements reported in PubChem BioAssay AID1259254 (NCATS, 2017)
Test: 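Gene knock-downs that lead to re-replication, shown by excess G2 DNA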 (primary screen). Cell system: human HCT116 colorectal cancer cells. Knock-down reagent: single siRNA against human genes. Timing: 3 days. Detection: 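Imaged Hoechst DNA stain sorts each cell into a cycle phase by DNA amount; per plate, G2 fraction set to 0% for non-targeting and 100% for GMNN siRNA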. Scale: G2 robust z-score and G2 cells, % of GMNN control: higher = more G2 cells, more excess DNA replication; raw share of cells in G2: higher = larger share of cells with G2 DNA content. Hit rule: 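Active siRNAs have a G2 robust z of 5 or more median absolute deviations over the median, which in these data means about 38% or higher of GMNN control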.
In all, the deposit lists about 59,000 reagents; shown is a random part of them. In the full data, about 1,550 (2.6%) were called active. 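G2 share is only a proxy for re-replication; each gene was hit by three separate siRNAs, and active genes were retested.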 The raw values are shown without normalisation. Unmarked entries are inactive. The numbers tell different reagents against one gene apart. Not given: the amount of reagent.

Target gene | reagent | G2 robust z-score | G2 cells, % of GMNN control | raw share of cells in G2 (%)
CKAP2 (GeneID 26586) | 1 | 1.09 | 10.6 | 8.4
CKAP2 (GeneID 26586) | 2 | -0.222 | 1.4 | 4.55
CKAP2 (GeneID 26586) | 3 | 2.02 | 17.2 | 9.3
ZFYVE1 (GeneID 53349) | 1 | -0.431 | -0.0675 | 2.77
ZFYVE1 (GeneID 53349) | 2 | 1.92 | 16.5 | 13.4
ZFYVE1 (GeneID 53349) | 3 | 1.57 | 14 | 8.03
MMRN1 (GeneID 22915) | 1 | -0.888 | -3.28 | 3.7
MMRN1 (GeneID 22915) | 2 | 1.87 | 16.1 | 10.8
MMRN1 (GeneID 22915) | 3 | 1.83 | 15.9 | 9.11
METTL21A (GeneID 151194) | 1 | 1.65 | 14.6 | 8.72
METTL21A (GeneID 151194) | 2 | -0.563 | -0.994 | 2.61
METTL21A (GeneID 151194) | 3 | -0.289 | 0.936 | 3.39
RPS6 (GeneID 6194) | 1 | 6.63 (active) | 49.6 | 26.1
RPS6 (GeneID 6194) | 2 | 0.525 | 6.66 | 6.85
RPS6 (GeneID 6194) | 3 | 4.33 | 33.4 | 15.4
DPP4 (GeneID 1803) | 1 | -0.164 | 1.81 | 6.19
DPP4 (GeneID 1803) | 2 | 0.986 | 9.91 | 8.41
DPP4 (GeneID 1803) | 3 | -0.737 | -2.22 | 3.08
KRTAP5-1 (GeneID 387264) | 1 | -0.728 | -2.15 | 4.12
KRTAP5-1 (GeneID 387264) | 2 | -0.877 | -3.2 | 3.12
KRTAP5-1 (GeneID 387264) | 3 | -1.26 | -5.91 | 3.35
STON1-GTF2A1L (GeneID 286749) | 1 | -0.084 | 2.38 | 5.15
STON1-GTF2A1L (GeneID 286749) | 2 | 1.76 | 15.4 | 12.5
STON1-GTF2A1L (GeneID 286749) | 3 | 1.4 | 12.8 | 9.97
RPS6KA6 (GeneID 27330) | 1 | 0.42 | 5.92 | 7.34
RPS6KA6 (GeneID 27330) | 2 | 1.74 | 15.2 | 10.3
RPS6KA6 (GeneID 27330) | 3 | 5.39 (active) | 40.9 | 16.8
MYBPC1 (GeneID 4604) | 1 | 2.4 | 19.8 | 9.74
MYBPC1 (GeneID 4604) | 2 | -0.346 | 0.532 | 5.68
MYBPC1 (GeneID 4604) | 3 | 0.991 | 9.94 | 9.2
PIGZ (GeneID 80235) | 1 | 1.13 | 10.9 | 8.15
PIGZ (GeneID 80235) | 2 | 1.12 | 10.8 | 8.8
PIGZ (GeneID 80235) | 3 | -0.387 | 0.247 | 5.53
KRTAP5-9 (GeneID 3846) | 1 | -0.621 | -1.4 | 4.38
KRTAP5-9 (GeneID 3846) | 2 | -0.721 | -2.1 | 3.39
KRTAP5-9 (GeneID 3846) | 3 | 1.1 | 10.7 | 7.21
UAP1 (GeneID 6675) | 1 | 0.868 | 9.07 | 8.73
UAP1 (GeneID 6675) | 2 | -0.931 | -3.58 | 3.32
UAP1 (GeneID 6675) | 3 | -0.528 | -0.745 | 3.71
RNF207 (GeneID 388591) | 1 | -0.72 | -2.1 | 3.05
RNF207 (GeneID 388591) | 2 | -0.175 | 1.74 | 4.16
RNF207 (GeneID 388591) | 3 | -0.863 | -3.1 | 3.3
LAMP3 (GeneID 27074) | 1 | -0.138 | 2 | 3.88
LAMP3 (GeneID 27074) | 2 | 0.944 | 9.61 | 7.53
LAMP3 (GeneID 27074) | 3 | 1.08 | 10.6 | 8.55
CASS4 (GeneID 57091) | 1 | 3.33 | 26.4 | 14.7
CASS4 (GeneID 57091) | 2 | -1.09 | -4.67 | 2.23
CASS4 (GeneID 57091) | 3 | -0.399 | 0.16 | 3.08
MND1 (GeneID 84057) | 1 | -0.33 | 0.645 | 4.32
MND1 (GeneID 84057) | 2 | 0.691 | 7.83 | 5.78
MND1 (GeneID 84057) | 3 | -0.308 | 0.798 | 2.65
HSD11B1L (GeneID 374875) | 1 | 0.0506 | 3.32 | 5.5
HSD11B1L (GeneID 374875) | 2 | 0.872 | 9.1 | 9.84
HSD11B1L (GeneID 374875) | 3 | 1.17 | 11.2 | 9.34
PARD3B (GeneID 117583) | 1 | -0.475 | -0.373 | 2.96
PARD3B (GeneID 117583) | 2 | 1.94 | 16.6 | 8.93
PARD3B (GeneID 117583) | 3 | -0.31 | 0.789 | 3.8
OR10AG1 (GeneID 282770) | 1 | -0.853 | -3.03 | 2.54
OR10AG1 (GeneID 282770) | 2 | 2.04 | 17.3 | 9.76
OR10AG1 (GeneID 282770) | 3 | 0.0491 | 3.31 | 4.27
ATP5MC2 (GeneID 517) | 1 | 0.612 | 7.27 | 7.66
ATP5MC2 (GeneID 517) | 2 | -0.379 | 0.299 | 4.1
ATP5MC2 (GeneID 517) | 3 | -1.18 | -5.37 | 2.89
CNOT11 (GeneID 55571) | 1 | -0.393 | 0.203 | 4.6
CNOT11 (GeneID 55571) | 2 | 0.858 | 9 | 7.87
CNOT11 (GeneID 55571) | 3 | 0.21 | 4.45 | 4.56
PHF20 (GeneID 51230) | 1 | -0.569 | -1.04 | 2.43
PHF20 (GeneID 51230) | 2 | -0.214 | 1.46 | 6.57
PHF20 (GeneID 51230) | 3 | 1.89 | 16.2 | 8.73
